For 36 compounds, survivor count and T/C results are on record in PubChem BioAssay AID256 (DTP/NCI, 2004).

This experiment relates to CD2F1 mice, L1210 leukemia ip, survival T/C. Put plainly: NCI In Vivo Anticancer Drug Screen. Data for tumor model L1210 Leukemia (intraperitoneal) in CD2F1 (CDF1) mice. The note with it: higher T/C = longer survival. Summed up:
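Activity against a transplanted murine tumor was judged by comparing the compound group with a vehicle group. The outcome in the treated animals was divided by that in the controls.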

The mark [1] stands for this setting: T/C endpoint: mean survival time, dose: 400.0 mg/kg/injection, schedule: Q01DX001 (ip), vehicle: saline.
[2] abbreviates: T/C endpoint: mean survival time, dose: 400.0 mg/kg/injection, schedule: Q04DX003 (ip), vehicle: saline with Tween-80.
Setting [3] is: T/C endpoint: mean survival time, dose: 150.0 mg/kg/injection, schedule: Q01DX001 (ip), vehicle: saline.
[4] abbreviates: T/C endpoint: mean survival time, dose: 300.0 mg/kg/injection, schedule: Q01DX001 (ip), vehicle: saline.
Setting [5] is: T/C endpoint: mean survival time, dose: 400.0 mg/kg/injection, schedule: Q01DX001 (ip), vehicle: saline with Tween-80.
[6] abbreviates: T/C endpoint: mean survival time, dose: 100.0 mg/kg/injection, schedule: Q01DX001 (ip), vehicle: saline with Tween-80.
[7] abbreviates: T/C endpoint: mean survival time, dose: 100.0 mg/kg/injection, schedule: Q04DX003 (ip), vehicle: saline.
[8] abbreviates: T/C endpoint: mean survival time, dose: 200.0 mg/kg/injection, schedule: Q04DX003 (ip), vehicle: saline.
The mark [9] stands for this setting: T/C endpoint: mean survival time, dose: 400.0 mg/kg/injection, schedule: Q04DX003 (ip), vehicle: saline.
[10] abbreviates: T/C endpoint: mean survival time, dose: 200.0 mg/kg/injection, schedule: Q01DX001 (ip), vehicle: saline with Tween-80.
The mark [11] stands for this setting: T/C endpoint: mean survival time, dose: 400.0 mg/kg/injection, schedule: Q04DX002 (ip), vehicle: saline with Tween-80.
Setting [12] is: T/C endpoint: mean survival time, dose: 100.0 mg/kg/injection, schedule: Q04DX003 (ip), vehicle: saline with Tween-80.
Setting [13] is: T/C endpoint: mean survival time, dose: 200.0 mg/kg/injection, schedule: Q01DX009 (ip), vehicle: saline with Tween-80.

The structures appear in SMILES notation. The list shows only some results of the screen, not a fair sample: it is rich in T/C values a quarter to a half above the control, in often repeated tests (any T/C) and in doses without a T/C. Further doses and runs are listed elsewhere. T/C gives the treated animals as a percentage of the vehicle group. Some doses have a count of surviving animals in place of a T/C: the source holds a T/C of zero for them, seemingly a mark for toxic or unscored doses. Some survivor counts are full or nearly so, which does not show that the dose was tolerated: survival well below the control is almost never listed, so the zero probably covers shortened survival too. Counts of survivors are from the toxicity check (mostly the fifth day) where no day follows; animals may have died later. Schedule codes are those of the source, taken here to give the interval after Q, in days (D) or hours (H), and the number of doses after X. Signs of the kind (2×) stand for listed records that agree. Some structures stand for samples that the source files as different forms (salt, stereo form or complex); doses refer to the form tested. Where survival is the endpoint, the PubChem record calls one and a half times the control and up active, and a quarter to a half above the control has no call in these data; cut-offs in other NCI protocols can differ.

`[O-][n+]1ccccc1F`: the survivor count reads like this: (T/C endpoint: mean survival time, dose: 200.0 mg/kg/injection, schedule: Q01DX001 (ip), vehicle: saline) 0 of 6; under setting [1], 0 of 6.
With `CCOc1ccc(NC(=S)N(C)C)cc1`, under setting [2], the survivor count is 3 of 6.
For `CNC(=O)Oc1ccc(N)cc1`, the survivor count runs as follows: under setting [3], 0 of 6; under setting [4], 0 of 6.
Turning to `CN(Cc1ccccc1)c1ccc2nc(N)nc(N)c2c1`, the survivor count under setting [2] is 2 of 6.
In the case of `O=C(O)c1c2c(nc3ccccc13)Cc1ccccc1-2`, the survivor count is, setting by setting: (T/C endpoint: mean survival time, dose: 200.0 mg/kg/injection, schedule: Q01DX009 (ip), vehicle: water) 3 of 6; (T/C endpoint: mean survival time, dose: 400.0 mg/kg/injection, schedule: Q01DX009 (ip), vehicle: water) 0 of 6; under setting [2], 0 of 6.
As for `O=C(O)CCn1cccc1`, under setting [5], the survivor count is 0 of 6.
For the compound `O=C(CNC(=O)Nc1cccc(C(F)(F)F)c1)N/N=C/c1ccccc1O`, the survivor count (T/C endpoint: mean survival time, dose: 50.0 mg/kg/injection, schedule: Q01DX009 (ip), vehicle: saline with Tween-80) was 3 of 3.
On to `N=C(N)N(CCS)CC(=O)O`, for which the survivor count under setting [6] is recorded as 3 of 3.
Take `C[N+](C)(C)CCOC(=O)c1ccc(CBr)c(CBr)c1`: the survivor count runs as follows: under setting [7], 0 of 6; under setting [8], 0 of 6; under setting [9], 0 of 6.
Take `Cn1cc[n+](C)c1C(c1ccccc1)N1CCCCC1` (centres undefined): the survivor count was 0 of 6 under setting [6], 0 of 6 under setting [10] and 0 of 6 under setting [5].
For the compound `CC(C)C(C(N)=O)C(N)=O`, under setting [11], the T/C was 128 % of control.
Turning to `NC(=O)N(CCCl)N=O`, for the setting “T/C endpoint: mean survival time, dose: 4.0 mg/kg/injection, schedule: Q03DX003 (ip), vehicle: saline”, the T/C is 136 % of control.
For `Nc1cc[c]([Hg][Cl])cc1`, the survivor count was 0 of 6 under setting [7], 0 of 6 under setting [8] and 0 of 6 under setting [9].
Consider `CC1CCC(NC2=NCCO2)C(C)C1` (centres undefined), for which the survivor count under setting [12] was 3 of 6.
Turning to `COc1ccc2c(c1)CNC1c3cc(OC)c(O)cc3CC21` (centres undefined), the survivor count under setting [12] is on record as 2 of 6 and the survivor count (T/C endpoint: mean survival time, dose: 150.0 mg/kg/injection, schedule: Q04DX003 (ip), vehicle: saline with Tween-80) was 1 of 6.
As for `O=C(NC(CSC(c1ccc(Cl)cc1)c1ccc(Cl)cc1)C(=O)O)OCc1ccccc1` (centres undefined), the survivor count under setting [3] is on record as 2 of 6.
On to `F[Si](c1ccc(Br)cc1)(c1ccc(Br)cc1)c1ccc(Br)cc1`, for which the survivor count by setting is: under setting [13], 3 of 6; under setting [2], 2 of 6.
On to `NC(=S)c1cc(C(N)=S)[nH]n1`, for which the survivor count (T/C endpoint: mean survival time, dose: 100.0 mg/kg/injection, schedule: Q01DX005 (ip), vehicle: other) was 0 of 3.
For `CC(C)c1oc(=O)cc2c1C(O)C1OC(=O)C3(C)C(O)C4OC4C2(C)C13` (centres undefined) (tested in a mixture with another compound), the survivor count by setting is: (T/C endpoint: mean survival time, dose: 200.0 mg/kg/injection, schedule: Q04DX002 (ip), vehicle: saline with Tween-80) 0 of 3; under setting [11], 0 of 3.
For the compound `CCOC(OCC)/C(C)=N/[N+](C)(C)C`, the survivor count under setting [4] was 3 of 6.
On to `CC(Br)C(=O)NC(CC(N)=O)C(=O)O` (centres undefined), for which the survivor count under setting [2] is recorded as 6 of 6.
In the case of `CC(=O)Oc1cc(N=[N+]=[N-])c(OC(C)=O)cc1C`, the survivor count under setting [5] is reported as 0 of 3.
In the case of `SCc1nc2ccccc2[nH]1`, the survivor count under setting [5] is 1 of 6.
With `Cc1sc(C)c(CCl)c1CCl`, the survivor count runs as follows: under setting [6], 3 of 6; under setting [10], 3 of 6; under setting [5], 0 of 6.
For the compound `CC[N](CC)[Ge]([CH2]C)[CH2]C.CC[N](CC)[Ge]([CH2]C)[CH2]C`, the survivor count runs as follows: (T/C endpoint: mean survival time, dose: 3.12 mg/kg/injection, schedule: Q01DX009 (ip), vehicle: suspension in saline) 6 of 6; (T/C endpoint: mean survival time, dose: 6.25 mg/kg/injection, schedule: Q01DX009 (ip), vehicle: suspension in saline) 6 of 6; (T/C endpoint: mean survival time, dose: 12.5 mg/kg/injection, schedule: Q01DX009 (ip), vehicle: suspension in saline) 6 of 6; (T/C endpoint: mean survival time, dose: 25.0 mg/kg/injection, schedule: Q01DX009 (ip), vehicle: suspension in saline) 6 of 6; (T/C endpoint: mean survival time, dose: 50.0 mg/kg/injection, schedule: Q01DX009 (ip), vehicle: suspension in saline) 3 of 6; (T/C endpoint: mean survival time, dose: 100.0 mg/kg/injection, schedule: Q01DX009 (ip), vehicle: saline) 0 of 6. For the same compound, the survivor count (T/C endpoint: mean survival time, dose: 100.0 mg/kg/injection, schedule: Q01DX009 (ip), vehicle: suspension in saline) is 0 of 6 (2×).
As for `O=C(OCC1OC(n2cnc3cc(Cl)c(Cl)cc32)C(OC(=O)c2ccccc2)C1OC(=O)c1ccccc1)c1ccccc1` (centres undefined), where the note is “T/C endpoint: mean survival time, dose: 200.0 mg/kg/injection, schedule: Q01DX005 (ip), vehicle: distilled water + Tween-80”, the survivor count is listed as 6 of 6.
As for `CN=C(NC)c1cccc(NC(=O)/C=C\c2ccc(/C=C/C(=O)Nc3cccc(C(=NC)NC)c3)cc2)c1`, the survivor count by setting is: (T/C endpoint: median survival time, dose: 10.0 mg/kg/injection, schedule: Q01DX009 (ip), vehicle: saline) 0 of 6; (T/C endpoint: median survival time, dose: 20.0 mg/kg/injection, schedule: Q01DX009 (ip), vehicle: saline) 0 of 6.
For `NNc1ncnc2c(C3OC(CO)C(O)C3O)[nH]nc12` (centres undefined), the T/C was 125 % of control (T/C endpoint: mean survival time, dose: 45.0 mg/kg/injection, schedule: Q01DX009 (ip), vehicle: saline sonified); 127 % of control (T/C endpoint: mean survival time, dose: 67.0 mg/kg/injection, schedule: Q01DX009 (ip), vehicle: saline sonified); 131 % of control (T/C endpoint: mean survival time, dose: 100.0 mg/kg/injection, schedule: Q01DX009 (ip), vehicle: saline sonified).
`CCCC(=O)C1=C(O)C(CC2=C(O)C(C)(C)C(=O)C(C(=O)CCC)=C2O)=C(O)C(C)(C)C1=O`: the survivor count under setting [1] is on record as 0 of 6.
For `O=C(Cn1[nH]c(=O)ccc1=O)c1ccccc1`, the survivor count (T/C endpoint: mean survival time, dose: 100.0 mg/kg/injection, schedule: Q04DX002 (ip), vehicle: saline with Tween-80) was 3 of 3.
`CC1(C)C2CCC1(CS(=O)(=O)O)C(=O)C2.[Ag]` (centres undefined): the survivor count (T/C endpoint: mean survival time, dose: 200.0 mg/kg/injection, schedule: Q04DX003 (ip), vehicle: acetone) is on record as 2 of 6 and the survivor count (T/C endpoint: mean survival time, dose: 400.0 mg/kg/injection, schedule: Q04DX003 (ip), vehicle: acetone) was 0 of 6.
Consider `N#CC(Nc1ccccc1)C1CC1c1ccccc1` (centres undefined), for which the survivor count by setting is: under setting [12], 6 of 6; (T/C endpoint: mean survival time, dose: 200.0 mg/kg/injection, schedule: Q04DX003 (ip), vehicle: saline with Tween-80) 6 of 6; under setting [2], 2 of 6.
Take `CCOP(=O)(OCC)C1=C(CC)CC1`: the survivor count is, setting by setting: (T/C endpoint: mean survival time, dose: 150.0 mg/kg/injection, schedule: Q01DX001 (ip), vehicle: other) 6 of 6; (T/C endpoint: mean survival time, dose: 300.0 mg/kg/injection, schedule: Q01DX001 (ip), vehicle: other) 0 of 6.
As to `CC(=O)N/N=C/C(C)(C)C(C)(C)/C=N/NC(C)=O`, under setting [11], the survivor count is listed as 0 of 3.
As to `CCOC(=O)c1cc([N+](=O)[O-])cc([N+](=O)[O-])c1Sc1ncnc2nc[nH]c12`, the T/C was 126 % of control (T/C endpoint: mean survival time, dose: 12.5 mg/kg/injection, schedule: Q01DX005 (ip), vehicle: other); 143 % of control (T/C endpoint: mean survival time, dose: 25.0 mg/kg/injection, schedule: Q01DX005 (ip), vehicle: other); 126 % of control (T/C endpoint: mean survival time, dose: 37.5 mg/kg/injection, schedule: Q01DX005 (ip), vehicle: other); 145 % of control (T/C endpoint: mean survival time, dose: 50.0 mg/kg/injection, schedule: Q01DX005 (ip), vehicle: other). For the setting “T/C endpoint: mean survival time, dose: 75.0 mg/kg/injection, schedule: Q01DX005 (ip), vehicle: other”, the survivor count is listed as 0 of 3.
For the compound `Cc1ccccc1S(=O)(=O)F`, the survivor count runs as follows: under setting [13], 0 of 6; under setting [2], 0 of 6.
